Measurements reported in paper PMC10942865.
Numbering of substitutions follows the chain as printed. Results are given in words; binding and its absence hold for the method and conditions named. In cells and extracts the contact can be indirect. For part of these data: Binding can be weak; no strength is given. For part of these data: Sequences can lack the tags named with a protein.

Amino acid sequences for entries named in this document (tags omitted).
UniProt Q9Y4B6: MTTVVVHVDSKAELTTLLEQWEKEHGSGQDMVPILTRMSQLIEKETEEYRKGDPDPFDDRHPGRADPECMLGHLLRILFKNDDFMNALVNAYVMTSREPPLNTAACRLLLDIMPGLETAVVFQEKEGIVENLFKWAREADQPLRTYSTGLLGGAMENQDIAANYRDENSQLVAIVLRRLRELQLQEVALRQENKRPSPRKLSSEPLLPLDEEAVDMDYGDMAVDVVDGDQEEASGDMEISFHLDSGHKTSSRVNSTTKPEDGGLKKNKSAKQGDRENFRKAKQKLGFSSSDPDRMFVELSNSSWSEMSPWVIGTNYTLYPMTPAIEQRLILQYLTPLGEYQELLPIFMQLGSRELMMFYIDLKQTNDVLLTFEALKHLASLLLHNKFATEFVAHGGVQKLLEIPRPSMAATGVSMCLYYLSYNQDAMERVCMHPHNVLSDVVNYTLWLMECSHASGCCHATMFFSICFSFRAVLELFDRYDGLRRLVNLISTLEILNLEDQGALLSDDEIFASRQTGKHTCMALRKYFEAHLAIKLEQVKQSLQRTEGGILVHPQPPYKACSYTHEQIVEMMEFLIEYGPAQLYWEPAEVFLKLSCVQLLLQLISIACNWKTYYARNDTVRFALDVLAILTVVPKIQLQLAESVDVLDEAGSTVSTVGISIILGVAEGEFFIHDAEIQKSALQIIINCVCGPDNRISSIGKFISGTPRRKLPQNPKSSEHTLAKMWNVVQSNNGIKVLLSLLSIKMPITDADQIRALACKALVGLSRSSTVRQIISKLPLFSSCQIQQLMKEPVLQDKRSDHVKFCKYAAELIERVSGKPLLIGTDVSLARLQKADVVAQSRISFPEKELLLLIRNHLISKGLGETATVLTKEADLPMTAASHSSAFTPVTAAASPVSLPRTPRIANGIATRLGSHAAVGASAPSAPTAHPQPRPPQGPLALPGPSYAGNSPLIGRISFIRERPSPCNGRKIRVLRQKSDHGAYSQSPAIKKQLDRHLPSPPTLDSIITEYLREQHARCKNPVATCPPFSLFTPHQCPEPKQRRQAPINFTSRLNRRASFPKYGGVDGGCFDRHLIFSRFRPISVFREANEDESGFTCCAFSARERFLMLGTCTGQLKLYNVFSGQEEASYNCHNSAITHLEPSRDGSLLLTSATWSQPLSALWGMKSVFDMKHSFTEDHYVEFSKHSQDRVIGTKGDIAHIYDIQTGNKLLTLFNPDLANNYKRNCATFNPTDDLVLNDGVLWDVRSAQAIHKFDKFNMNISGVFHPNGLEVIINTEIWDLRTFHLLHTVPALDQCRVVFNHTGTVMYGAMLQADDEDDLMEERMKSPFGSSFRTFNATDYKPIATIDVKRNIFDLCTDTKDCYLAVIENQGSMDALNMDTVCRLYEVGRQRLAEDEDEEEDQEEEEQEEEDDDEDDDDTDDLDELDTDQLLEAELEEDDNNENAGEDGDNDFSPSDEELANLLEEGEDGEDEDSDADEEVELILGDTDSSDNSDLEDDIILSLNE

Experiments:
Flag-PLK4-ΔPEST (human) = Flag-PLK4-ΔPEST (human) (UniProt O00444); assay: co-IP; Flag-tagged protein overexpressed in HEK293T; 3-6 mg cell extract in NP-40 buffer with α-Flag M2 beads, 3 h or overnight at 4°C, 3x Flag peptide elution, Western blot; also cells synchronized in G1/S or G2, siRNA against PLK4, or λ-phosphatase treatment of the immunoprecipitate
[1] = molecular target: T1, Flag-PLK4 wt (polo-like kinase 4), full-length (human) (UniProt O00444); assay: as above
T1 sequence: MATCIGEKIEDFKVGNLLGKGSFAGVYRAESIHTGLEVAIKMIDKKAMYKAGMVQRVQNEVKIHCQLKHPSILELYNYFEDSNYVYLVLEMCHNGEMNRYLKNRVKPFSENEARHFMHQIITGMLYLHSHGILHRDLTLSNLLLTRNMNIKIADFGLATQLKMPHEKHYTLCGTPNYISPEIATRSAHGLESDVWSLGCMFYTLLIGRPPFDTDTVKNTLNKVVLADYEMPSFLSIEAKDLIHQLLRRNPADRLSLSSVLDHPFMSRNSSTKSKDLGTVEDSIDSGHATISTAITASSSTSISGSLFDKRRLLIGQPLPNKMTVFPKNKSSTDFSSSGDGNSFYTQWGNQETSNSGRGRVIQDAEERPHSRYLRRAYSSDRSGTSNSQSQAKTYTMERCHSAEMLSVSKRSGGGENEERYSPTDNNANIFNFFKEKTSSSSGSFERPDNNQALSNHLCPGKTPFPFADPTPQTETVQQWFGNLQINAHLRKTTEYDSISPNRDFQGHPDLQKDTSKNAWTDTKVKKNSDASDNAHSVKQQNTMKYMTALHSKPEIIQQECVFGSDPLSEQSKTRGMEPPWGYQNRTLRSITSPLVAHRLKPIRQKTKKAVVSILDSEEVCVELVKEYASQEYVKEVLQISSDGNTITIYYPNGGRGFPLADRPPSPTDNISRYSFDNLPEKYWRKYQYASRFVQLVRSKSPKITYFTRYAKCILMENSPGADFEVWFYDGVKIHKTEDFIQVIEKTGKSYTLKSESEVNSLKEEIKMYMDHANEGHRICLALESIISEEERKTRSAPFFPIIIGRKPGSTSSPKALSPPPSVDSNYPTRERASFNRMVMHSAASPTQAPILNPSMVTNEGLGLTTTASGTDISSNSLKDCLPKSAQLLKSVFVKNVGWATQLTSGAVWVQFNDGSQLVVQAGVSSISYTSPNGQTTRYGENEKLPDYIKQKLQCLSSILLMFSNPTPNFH

[2] = molecular target: T2, Flag-PLK4-AA (S285A + T289A), β-TrCP-binding mutant (human) (UniProt O00444); assay: as above
T2 sequence: T1 sequence with S285A, T289A

[3] = molecular target: T3, Flag-PLK4 K41R (kinase-dead) (human) (UniProt O00444); assay: as above
T3 sequence: T1 sequence with K41R

[4] = molecular target: T1, Flag-PLK4 wt (polo-like kinase 4), full-length (human); assay: co-IP; sequential: Flag-PLK4 and HA-DCAF1 overexpressed in HEK293T; IP against the Flag tag, Flag peptide elution, then IP against the HA tag from the eluates, Western blot

| binding (Flag-PLK4-ΔPEST (human)) | binding [1] | binding [2] | binding [3] | binding [4] | Substance |
| --- | --- | --- | --- | --- | --- |
| binds | – | – | – | – | DCAF1 (VprBP), endogenous (from UniProt Q9Y4B6 1-1507) |
| – | binds | no binding | no binding | – | β-TrCP, endogenous (human (endogenous in HEK293T)) |
| – | binds | – | – | binds | CUL4, endogenous (human (endogenous in HEK293T)) |
